This experiment relates to L1210 leukemia ip in BDF1 mice, survival T/C. As to the kind of experiment: NCI In Vivo Anticancer Drug Screen. Data for tumor model L1210 Leukemia (intraperitoneal) in B6D2F1 (BDF1) mice. As to conditions: T/C endpoint: mean survival time, higher T/C = longer survival.
The mark [1] stands for this setting: dose: 400.0 mg/kg/injection, schedule: Q04DX003 (ip), vehicle: saline with Tween-80.
Where [2] appears, read: dose: 400.0 mg/kg/injection, schedule: Q01DX009 (ip), vehicle: saline.
Where [3] appears, read: dose: 400.0 mg/kg/injection, schedule: Q01DX001 (ip), vehicle: saline.
Where [4] appears, read: dose: 400.0 mg/kg/injection, schedule: Q01DX001 (ip), vehicle: carboxymethylcellulose (CMC).
The mark [5] stands for this setting: dose: 400.0 mg/kg/injection, schedule: Q04DX002 (ip), vehicle: saline with Tween-80.

Each structure is given as a SMILES string. The list shows only some results of the screen, not a fair sample: it is rich in T/C values a quarter to a half above the control, in often repeated tests (any T/C) and in doses without a T/C. Other doses and runs of a compound stand elsewhere. T/C is the treated group as % of the vehicle group. Some entries give survivors of the animals treated and no T/C: the source holds a T/C of zero for them, seemingly a mark for toxic or unscored doses. Some doses without a T/C left all or most animals alive at the check, yet need not have been tolerated: survival well below the control is almost never listed, so the zero probably covers shortened survival too. Counts of survivors are from the toxicity check (mostly the fifth day) where no day follows; animals may have died later. Schedule codes are those of the source, read here as Q, the interval in days (D) or hours (H), X, the number of doses. Some doses were run more than once; the values are given in rising order. Where survival is the endpoint, this PubChem deposit counts one and a half times the control or more as active, and values a quarter to a half above the control carry no call in these data; other NCI protocols may use other cut-offs. Some T/C values carry the count of animals alive at the toxicity check (mostly the fifth day); without a count, all were alive then.

Consider `CN(C)CCOC(=O)c1ccccc1CBr`, for which the survivor count (dose: 87.5 mg/kg/injection, schedule: Q01DX009 (ip), vehicle: saline) is recorded as 0 of 6; the survivor count (dose: 175.0 mg/kg/injection, schedule: Q01DX009 (ip), vehicle: saline) is 0 of 6; the survivor count (dose: 350.0 mg/kg/injection, schedule: Q01DX009 (ip), vehicle: saline) was 0 of 6.
On to `O=C1C(Cl)=C(Nc2nc3ccccc3s2)C(=O)c2ccccc21`, for which the survivor count by setting is: (dose: 100.0 mg/kg/injection, schedule: Q01DX001 (ip), vehicle: Klucel (hydroxypropylcellulose) (HPC)) 3 of 3; (dose: 200.0 mg/kg/injection, schedule: Q01DX001 (ip), vehicle: Klucel (hydroxypropylcellulose) (HPC)) 0 of 3; (dose: 400.0 mg/kg/injection, schedule: Q01DX001 (ip), vehicle: Klucel (hydroxypropylcellulose) (HPC)) 0 of 3.
Take `C[C@@H]1CN1C1=CC(=O)C(N2C[C@H]2C)=CC1=O`: the survivor count was 6 of 6 (dose: 25.0 mg/kg/injection, schedule: Q04DX003 (ip), vehicle: saline with Tween-80); 0 of 6 (dose: 100.0 mg/kg/injection, schedule: Q04DX003 (ip), vehicle: saline with Tween-80); 0 of 6 (dose: 200.0 mg/kg/injection, schedule: Q04DX003 (ip), vehicle: saline with Tween-80); 0 of 6 under setting [1].
On to `COc1cc(N)c2ncsc2c1`, for which the survivor count under setting [2] was 3 of 3.
As to `Cc1cc2c3ccccc3ccc2[n+]2ccccc12`, the T/C was 126 % of control (dose: 8.75 mg/kg/injection, schedule: Q01DX009 (ip), vehicle: saline); 132 % of control (dose: 17.5 mg/kg/injection, schedule: Q01DX009 (ip), vehicle: saline); 140 % of control [5 of 6 alive] (dose: 35.0 mg/kg/injection, schedule: Q01DX009 (ip), vehicle: saline). Besides, the survivor count is, setting by setting: (dose: 36.0 mg/kg/injection, schedule: Q01DX009 (ip), vehicle: acetone) 1 of 6; (dose: 36.0 mg/kg/injection, schedule: Q01DX009 (ip), vehicle: saline) 0 of 6; (dose: 70.0 mg/kg/injection, schedule: Q01DX009 (ip), vehicle: saline) 0 of 6; (dose: 72.0 mg/kg/injection, schedule: Q01DX009 (ip), vehicle: saline) 0 of 6; (dose: 200.0 mg/kg/injection, schedule: Q01DX001 (ip), vehicle: saline) 1 of 4; under setting [3], 0 of 4.
Consider `CC(=O)NCS(=O)(=O)O`, for which the survivor count under setting [2] was 6 of 6.
For the molecule `O=[N+]([O-])c1c[nH]c2ncnc(Cl)c12`, the survivor count under setting [4] is 2 of 4.
Take `CCCC(CCC)=NCCCO`: the survivor count (dose: 300.0 mg/kg/injection, schedule: Q01DX001 (ip), vehicle: carboxymethylcellulose (CMC)) is 0 of 6.
For `C[N+](C)(C)c1ncnc2c1ncn2C1CC(O)C(CO)O1` (stereo not given), under setting [3], the survivor count is listed as 1 of 4.
With `CCCCC(CCC)(CCC)CCN`, the survivor count (dose: 12.5 mg/kg/injection, schedule: Q01DX001 (ip), vehicle: carboxymethylcellulose (CMC)) is reported as 2 of 4; the survivor count (dose: 20.0 mg/kg/injection, schedule: Q01DX015 (ip), vehicle: carboxymethylcellulose (CMC)) is on record as 3 of 6; the survivor count (dose: 25.0 mg/kg/injection, schedule: Q01DX001 (ip), vehicle: carboxymethylcellulose (CMC)) is listed as 2 of 4; the survivor count (dose: 50.0 mg/kg/injection, schedule: Q01DX001 (ip), vehicle: carboxymethylcellulose (CMC)) is listed as 0 of 4; the survivor count (dose: 100.0 mg/kg/injection, schedule: Q01DX001 (ip), vehicle: carboxymethylcellulose (CMC)) is 0 of 4.
On to `CCCC(=O)CCCCNC(=O)c1ccccc1`, for which the survivor count under setting [5] is given as 1 of 3.
For the molecule `CN(C)c1ccc(O)c2c1CC1CC3C(N(C)C)C(=O)C(C(N)=O)=C(O)C3(O)C(=O)C1=C2O` (stereo not given), under setting [1], the survivor count was 0 of 6.
For `CN(CCCCN(C)P(=O)(N1CC1)N1CC1)P(=O)(N1CC1)N1CC1`, the survivor count is on record as 0 of 6 (dose: 200.0 mg/kg/injection, schedule: Q01DX001 (ip), vehicle: carboxymethylcellulose (CMC)) and 0 of 6 under setting [4].
Regarding `Cc1cccc(CSc2nc(N)nc3c2ncn3C2CC(O)C(CO)O2)n1` (stereo not given), the T/C (dose: 200.0 mg/kg/injection, schedule: Q01DX009 (ip), vehicle: saline) was 129 % of control and the T/C under setting [2] was 148 % of control.
For `CCN1/C(=C/C(C)=C/c2[se]c3ccc(C)cc3[n+]2CC)[Se]c2ccc(C)cc21`, the survivor count is on record as 0 of 6 (dose: 8.0 mg/kg/injection, schedule: Q01DX001 (ip), vehicle: other); 0 of 6 (dose: 9.5 mg/kg/injection, schedule: Q01DX001 (ip), vehicle: other); 0 of 6 (dose: 19.0 mg/kg/injection, schedule: Q01DX001 (ip), vehicle: other); 0 of 6 (dose: 38.0 mg/kg/injection, schedule: Q01DX001 (ip), vehicle: other); 0 of 6 (dose: 75.0 mg/kg/injection, schedule: Q01DX001 (ip), vehicle: other); 0 of 6 (dose: 150.0 mg/kg/injection, schedule: Q01DX001 (ip), vehicle: other). Besides, under “dose: 300.0 mg/kg/injection, schedule: Q01DX001 (ip), vehicle: other”, the survivor count is given as 0 of 6.
For `S=C([S-])N1CCCCC1.S=C([S-])N1CCCCC1.[Zn]`, the survivor count is recorded as 1 of 6 (dose: 150.0 mg/kg/injection, schedule: Q01DX001 (ip), vehicle: saline) and 0 of 6 (dose: 300.0 mg/kg/injection, schedule: Q01DX001 (ip), vehicle: saline).
Regarding `CCOC(=O)N1CCN(C(=S)[S-])CC1.CCOC(=O)N1CCN(C(=S)[S-])CC1.[Zn]`, the survivor count (dose: 75.0 mg/kg/injection, schedule: Q01DX001 (ip), vehicle: saline) is reported as 6 of 6.
`Nc1ncnc2c1c(-c1nn[nH]n1)cn2C1OC(CO)C(O)C1O` (stereo not given): the T/C is 127 % of control (dose: 12.5 mg/kg/injection, schedule: Q01DX009 (ip), vehicle: saline); 128 % of control (dose: 25.0 mg/kg/injection, schedule: Q01DX005 (ip), vehicle: saline); 128 and 134 % of control (dose: 25.0 mg/kg/injection, schedule: Q01DX009 (ip), vehicle: saline). The survivor count runs as follows: (dose: 100.0 mg/kg/injection, schedule: Q01DX005 (ip), vehicle: saline) 3 of 6; (dose: 200.0 mg/kg/injection, schedule: Q01DX005 (ip), vehicle: saline) 0 of 6.
`COc1ccc(OC)c2c(C)cc(=O)[nH]c12`: the survivor count under setting [3] is listed as 0 of 6.
Regarding `N#Cc1ccccc1C(N)=O`, the survivor count reads like this: (dose: 200.0 mg/kg/injection, schedule: Q04DX002 (ip), vehicle: saline) 1 of 3; (dose: 400.0 mg/kg/injection, schedule: Q04DX002 (ip), vehicle: saline) 0 of 3.
For the molecule `O=C1C2C3CCC(O3)C2C(=O)N1CC#CCCl` (stereo not given), the survivor count runs as follows: (dose: 25.0 mg/kg/injection, schedule: Q04DX002 (ip), vehicle: saline with Tween-80) 0 of 3; (dose: 100.0 mg/kg/injection, schedule: Q04DX002 (ip), vehicle: saline with Tween-80) 0 of 3; (dose: 200.0 mg/kg/injection, schedule: Q04DX002 (ip), vehicle: saline with Tween-80) 0 of 3; under setting [5], 0 of 3.
`COc1ccc(/C=C/c2ccc3ccccc3[n+]2C)cc1`: the survivor count (dose: 100.0 mg/kg/injection, schedule: Q04DX003 (ip), vehicle: Klucel (hydroxypropylcellulose) (HPC)) was 4 of 6 and 6 of 6; the survivor count (dose: 200.0 mg/kg/injection, schedule: Q04DX003 (ip), vehicle: Klucel (hydroxypropylcellulose) (HPC)) is 1 of 6; the survivor count (dose: 400.0 mg/kg/injection, schedule: Q04DX003 (ip), vehicle: Klucel (hydroxypropylcellulose) (HPC)) is listed as 0 of 6.

For the origin of these results see PubChem BioAssay AID248 (DTP/NCI, 2004).
